Test [1] addresses GM-CSF receptor, cognate for the murine GM-CSF constructs (UniProt Q00941). Nature of the test: SPR (Biacore), fusion captured on anti-human F(ab)2, 100 nM GM-CSF receptor injected.
For test [2] the target is unchanged. Nature of the test: SPR, fusion captured, cognate GM-CSF receptor at 100 nM.

By UniProt entry, the sequences of proteins in these tests, tags left out. Residues count along the entry.
UniProt Q00941, residues 30-327: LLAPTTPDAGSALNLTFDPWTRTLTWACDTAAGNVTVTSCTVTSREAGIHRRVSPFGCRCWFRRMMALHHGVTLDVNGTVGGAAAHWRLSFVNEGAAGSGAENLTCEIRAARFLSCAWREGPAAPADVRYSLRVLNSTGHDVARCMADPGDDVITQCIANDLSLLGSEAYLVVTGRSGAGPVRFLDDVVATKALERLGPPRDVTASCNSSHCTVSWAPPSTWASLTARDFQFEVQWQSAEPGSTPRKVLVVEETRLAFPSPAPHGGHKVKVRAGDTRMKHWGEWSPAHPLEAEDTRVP

The record followed here is patent US20220073581A1.

No constants are given. Whether binding was seen depends on the method and setting. Some entries that bind do so weakly or less than the wild type.

B1: CA645/GM-CSFCH1 (murine) (CA645 Fab with murine GM-CSF at the C-terminus of CH1, for comparison) (Fab, V domains shown)
VH: EVQLLESGGGLVQPGGSLRLSCAVSGIDLSNYAINWVRQAPGKGLEWIGIIWASGTTFYATWAKGRFTISRDNSKNTVYLQMNSLRAEDTAVYYCARTVPGYSTAPYFDLWGQGTLVTVSS
VL: DIQMTQSPSSVSASVGDRVTITCQSSPSVWSNFLSWYQQKPGKAPKLLIYEASKLTSGVPSRFSGSGSGTDFTLTISSLQPEDFATYYCGGGYSSISDTTFGGGTKVEIKR
As for B1, the binding entry in test [1] and in test [2] was “binds” in each case.
